Our source for the binding values is patent US20240392039A1.

Sequences of proteins named here, by UniProt entry; tags and fusion partners are left off. A change or cut given only in a name is not applied to a line headed by its entry.
UniProt P01031: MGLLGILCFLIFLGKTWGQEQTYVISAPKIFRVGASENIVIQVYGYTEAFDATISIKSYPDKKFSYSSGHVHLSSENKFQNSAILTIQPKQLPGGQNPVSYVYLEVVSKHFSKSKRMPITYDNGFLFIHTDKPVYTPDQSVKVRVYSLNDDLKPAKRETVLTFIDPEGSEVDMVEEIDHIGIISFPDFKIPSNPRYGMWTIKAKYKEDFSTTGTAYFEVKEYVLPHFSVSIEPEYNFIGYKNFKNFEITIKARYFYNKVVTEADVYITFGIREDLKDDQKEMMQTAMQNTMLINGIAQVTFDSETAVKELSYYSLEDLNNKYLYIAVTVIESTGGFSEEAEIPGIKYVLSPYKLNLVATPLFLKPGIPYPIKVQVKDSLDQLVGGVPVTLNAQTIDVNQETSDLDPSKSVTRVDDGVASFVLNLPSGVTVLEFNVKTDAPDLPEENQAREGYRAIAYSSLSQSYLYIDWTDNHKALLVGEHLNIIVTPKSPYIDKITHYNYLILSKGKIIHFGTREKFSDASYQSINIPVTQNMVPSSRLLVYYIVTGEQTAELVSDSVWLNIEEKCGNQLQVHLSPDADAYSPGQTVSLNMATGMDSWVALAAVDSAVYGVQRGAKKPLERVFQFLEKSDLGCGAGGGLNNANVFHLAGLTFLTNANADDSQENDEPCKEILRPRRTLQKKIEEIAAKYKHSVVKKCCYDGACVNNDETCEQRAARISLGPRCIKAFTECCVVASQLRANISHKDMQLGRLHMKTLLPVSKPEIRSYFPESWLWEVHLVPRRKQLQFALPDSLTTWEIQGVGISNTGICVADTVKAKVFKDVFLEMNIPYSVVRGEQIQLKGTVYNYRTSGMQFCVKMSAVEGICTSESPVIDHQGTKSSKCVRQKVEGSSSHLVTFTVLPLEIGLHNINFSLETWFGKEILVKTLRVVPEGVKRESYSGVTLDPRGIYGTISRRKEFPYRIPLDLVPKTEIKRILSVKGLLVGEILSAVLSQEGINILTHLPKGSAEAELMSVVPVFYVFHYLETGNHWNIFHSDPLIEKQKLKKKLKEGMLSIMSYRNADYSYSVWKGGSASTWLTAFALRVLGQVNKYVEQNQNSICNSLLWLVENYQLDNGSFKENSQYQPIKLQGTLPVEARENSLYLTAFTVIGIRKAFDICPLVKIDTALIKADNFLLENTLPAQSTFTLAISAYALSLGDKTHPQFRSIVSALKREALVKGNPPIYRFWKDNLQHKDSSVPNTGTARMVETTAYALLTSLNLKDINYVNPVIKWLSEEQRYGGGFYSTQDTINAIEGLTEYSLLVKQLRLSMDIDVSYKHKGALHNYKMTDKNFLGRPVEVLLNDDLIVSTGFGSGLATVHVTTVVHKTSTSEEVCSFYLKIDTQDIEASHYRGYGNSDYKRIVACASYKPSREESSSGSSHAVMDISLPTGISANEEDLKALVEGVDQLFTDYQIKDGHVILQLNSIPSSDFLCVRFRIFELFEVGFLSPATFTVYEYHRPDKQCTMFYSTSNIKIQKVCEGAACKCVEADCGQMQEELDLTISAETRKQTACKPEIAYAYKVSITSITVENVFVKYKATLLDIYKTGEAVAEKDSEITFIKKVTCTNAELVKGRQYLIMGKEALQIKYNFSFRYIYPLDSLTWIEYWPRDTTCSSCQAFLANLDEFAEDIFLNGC

Results are given in words; binding and its absence hold for the method and conditions named. Some entries that bind do so weakly or less than the wild type.

The target of test [1] is human complement C5 (human) (UniProt P01031). The experiment in a line: A4F-MALLS, mixed with H4H12166P and hC5 at 0.5:0.5:1 µM.
Test [2] shares this target. Briefly: A4F-MALLS fractogram; H4H12166P, H4H12175P and hC5 mixed at 0.5:0.5:1 µM.
The target is the same in test [3]. Briefly: A4F-MALLS fractogram; H4H12166P, H4H12171P and hC5 mixed at 0.5:0.5:1 µM.

B1: H4H12175P (antibody, V domains shown)
VH: EVQLVESGGGVVQPGGSLRLSCAASGFTFNDYAMHWVRQAPGKGLEWVSLISGDGGNTYYADSVKGRLTISRDNSKNSLYLQMNSLRTEDTALYYCAKDKGWNFGYFDLWGRGTLVTVSS
VL: DIQMTQSPSSLSTSVGDRVTITCRASQNIDTYLNWYQQKPGKAPKLLIYDASSLQSGVPSRFSGSGSGTDFTLTITSLQPEDFATYYCQQNDNILHPLTFGGGTKVEIK
As for B1, the binding entry in test [1] and in test [2] was “binds” in each case.

B2: H4H12161P (antibody, V domains shown)
VH: EVQLVESGGDLVQPGGSLRLSCAASGFTFSDHYMDWVRQAPGKGLDWIGRIRNKANAYNTEYAASVRGRFTISRDDSQNLLYLQMNSLKTDDTAVYYCVRVWNYAYFAMDVWGQGTTVTVSS
VL: DIQMTQSPSSLSASVGDRVTITCRSSQNIGIFLNWYQQKPGEAPNLLISAASSLHSGVPSRFSGSGSGTDFTLTIGSLQPEDFATYYCQQTYNTIFTFGPGTKVDIK
Consider B2, for which the binding entry in test [1] was “binds”.

B3: H4H12171P (antibody, V domains shown)
VH: EVQLVESGGGVVRPGGSLRLSCAASGFTFDEYGMTWVRQVPGKGLEWVSGITWNGGFTDYTDSVKGRFTSSRDNAKNSLYLQMNSLRAEDTALYYCARDGYSSSWGAYDIWGQGTMVTVSS
VL: DIQMTQSPSSLSASVGDRVTITCRASQSISTYLNWYQQKPGKAPKLLIYAASSLQSGVPLRFSGSGSGTDFTLTISSLQPEDFASYFCQQSYSTPYTFGQGTKLEIK
With B3, the binding result in test [1] and in test [3] was “binds” each time.
